Some entries share one result that the patent states for a list of compounds.
Tests used:
[1] = tested on: APESV (Apera spica-venti, windgrass); test: greenhouse herbicidal test, pre-emergence, APESV; format: in vivo; conditions: pre-emergence method, application rate 0.5 kg/ha, scale from 0 to 100
[2] = tested on: ECHCG (Echinochloa crus-galli, barnyard grass); test: greenhouse herbicidal test, post-emergence, ECHCG; format: in vivo; conditions: post-emergence method, application rate 0.5 kg/ha, scale from 0 to 100

Row | Structure (SMILES) | herbicidal activity against APESV [1] | herbicidal activity against ECHCG [2]
1 | CC(C)C1(Cc2ccccc2)C(=O)N(C)C(=Cc2ccccc2C#N)C(=O)N1C (racemic) [Example 24] | very good (a very good herbicidal activity is given at values of at least 85) | –
2 | CN1C(=O)C(C)(Cc2ccc(Cl)cc2)N(C)C(=O)C1=Cc1ccccc1C#N (racemic) [Example 137] | very good (a very good herbicidal activity is given at values of at least 85) | –
3 | CCc1cccc(C#N)c1C=C1C(=O)N(C)C(C)(Cc2ccccc2)C(=O)N1C (racemic) [Example 29] | very good (a very good herbicidal activity is given at values of at least 85) | –
4 | CN1C(=O)C(C)(Cc2ccccc2)NC(=O)C1=Cc1ccccc1[N+](=O)[O-] (racemic) [Example 44] | – | very good (a very good herbicidal activity is given at values of at least 85)
5 | CCN1C(=O)C(=Cc2ccccc2[N+](=O)[O-])N(C)C(=O)C1(C)Cc1ccccc1 (racemic) [Example 47] | – | very good (a very good herbicidal activity is given at values of at least 85)

From patent publication US20100152047A1, “Piperazine Compounds Whith a Herbicidal Action” (BASF SE, priority 2007, published 2010)
